Results are given in words; binding and its absence hold for the method and conditions named. Binding seen in cells or lysates may run through a third protein. A result given as binding can be weak or reduced; the word gives no strength. Where a sequence is shown, tags or fusion partners need not be part of it.
Target: gigaxonin kelch repeats (Ke) (human)
Test: co-IP; HEK293T cells transfected with tagged plasmids; NP-40 lysis buffer (150 mM NaCl, 1% NP-40, 20 mM Tris-HCl pH 7.4), Protein G Sepharose 2 h, washes with 0.5 M NaCl; for TREX1 the cells were treated with MG132 for 6 h

B1: Flag-TREX1 (protein, UniProt Q9NSU2-3 1-314)
chain: MGSQALPPGPMQTLIFFDMEATGLPFSQPKVTELCLLAVHRCALESPPTSQGPPPTVPPPPRVVDKLSLCVAPGKACSPAASEITGLSTAVLAAHGRQCFDDNLANLLLAFLRRQPQPWCLVAHNGDRYDFPLLQAELAMLGLTSALDGAFCVDSITALKALERASSPSEHGPRKSYSLGSIYTRLYGQSPPDSHTAEGDVLALLSICQWRPQALLRWVDAHARPFGTIRPMYGVTASARTKPRPSAVTTTAHLATTRNTSPSLGESRGTKDLPPVKDPGALSREGLLAPLGLLAILTLAVATLYGLSLATPGE
**Q.** B1 was tested. Which binding did it give?
**A.** The binding was “binds”.

Source: article PMC12667517, “Gigaxonin Potentiates Antiviral Innate Immune Responses by Targeting cGAS and TREX1” (Advanced Science, 2025)
